Laboratory results taken from patent US10683327B2 (priority 2015, dated 2020).

Test: general procedure: solution-phase peptide synthesis; HATU/DIPEA; HBTU/DIPEA; EEDQ; pentafluorophenyl esters
Conditions: for conjugation yield: conjugation step

| Substance | step yield (late stage modification step) [%] | conjugation yield [%] |
| --- | --- | --- |
| MC-SAA1-SAA1-Val-Cit-APEA-AF | 53 | – |
| Zoptarelin-GA-SAA1-Val-Cit-APEA-AF | – | 43 |
| MC-SAA4-Val-Cit-APEA-AF | – | 70 |
| MC-SAA3-Val-Cit-APEA-AF | – | 55 |
| MC-SAA3-SAA3-Val-Cit-APEA-AF | – | 52 |
